For this assay, the target named is T1, HA-Amot-p130^S176E (mouse (by the paper's numbering: Ser176 in mouse, Ser175 in human)) (UniProt Q8VHG2).
T1 sequence: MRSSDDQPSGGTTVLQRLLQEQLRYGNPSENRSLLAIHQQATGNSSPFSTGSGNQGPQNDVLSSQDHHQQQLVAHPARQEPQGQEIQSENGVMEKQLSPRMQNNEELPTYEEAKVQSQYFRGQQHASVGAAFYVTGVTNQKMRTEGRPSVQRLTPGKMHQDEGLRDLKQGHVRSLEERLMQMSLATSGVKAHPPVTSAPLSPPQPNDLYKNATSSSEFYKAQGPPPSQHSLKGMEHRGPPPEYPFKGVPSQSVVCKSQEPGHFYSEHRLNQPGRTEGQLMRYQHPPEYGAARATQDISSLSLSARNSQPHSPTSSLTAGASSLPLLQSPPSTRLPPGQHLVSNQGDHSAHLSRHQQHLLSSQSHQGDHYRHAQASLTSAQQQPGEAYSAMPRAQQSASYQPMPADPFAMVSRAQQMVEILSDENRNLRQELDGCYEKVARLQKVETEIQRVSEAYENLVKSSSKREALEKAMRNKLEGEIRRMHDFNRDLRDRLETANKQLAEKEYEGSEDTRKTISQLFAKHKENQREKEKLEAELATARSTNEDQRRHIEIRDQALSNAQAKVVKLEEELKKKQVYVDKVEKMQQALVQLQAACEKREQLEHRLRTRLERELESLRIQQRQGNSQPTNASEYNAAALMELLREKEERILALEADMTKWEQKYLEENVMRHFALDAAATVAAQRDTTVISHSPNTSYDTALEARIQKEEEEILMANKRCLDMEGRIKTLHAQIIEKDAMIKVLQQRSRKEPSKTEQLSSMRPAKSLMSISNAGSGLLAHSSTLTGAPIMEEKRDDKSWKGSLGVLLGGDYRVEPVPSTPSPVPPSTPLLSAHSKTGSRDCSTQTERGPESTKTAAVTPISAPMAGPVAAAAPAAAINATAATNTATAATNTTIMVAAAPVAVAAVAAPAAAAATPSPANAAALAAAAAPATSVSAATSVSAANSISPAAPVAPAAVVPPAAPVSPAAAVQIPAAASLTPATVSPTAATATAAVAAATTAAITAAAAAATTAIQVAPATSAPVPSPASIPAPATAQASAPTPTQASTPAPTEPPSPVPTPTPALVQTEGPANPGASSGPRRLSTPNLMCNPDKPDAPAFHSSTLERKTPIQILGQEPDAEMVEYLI
The experiment in a line: co-IP; HEK293-shAmot cells co-transfected with an Amot-p130 allele (WT, S176A, S176E or PY motif mutants) and tagged partners; total RIPA lysate, IP with tag or protein antibodies overnight, immunoblot. Background: In western blotting, separated proteins are transferred to a membrane and probed.

Amino acid sequences for entries named in this document (tags omitted).
UniProt P46937: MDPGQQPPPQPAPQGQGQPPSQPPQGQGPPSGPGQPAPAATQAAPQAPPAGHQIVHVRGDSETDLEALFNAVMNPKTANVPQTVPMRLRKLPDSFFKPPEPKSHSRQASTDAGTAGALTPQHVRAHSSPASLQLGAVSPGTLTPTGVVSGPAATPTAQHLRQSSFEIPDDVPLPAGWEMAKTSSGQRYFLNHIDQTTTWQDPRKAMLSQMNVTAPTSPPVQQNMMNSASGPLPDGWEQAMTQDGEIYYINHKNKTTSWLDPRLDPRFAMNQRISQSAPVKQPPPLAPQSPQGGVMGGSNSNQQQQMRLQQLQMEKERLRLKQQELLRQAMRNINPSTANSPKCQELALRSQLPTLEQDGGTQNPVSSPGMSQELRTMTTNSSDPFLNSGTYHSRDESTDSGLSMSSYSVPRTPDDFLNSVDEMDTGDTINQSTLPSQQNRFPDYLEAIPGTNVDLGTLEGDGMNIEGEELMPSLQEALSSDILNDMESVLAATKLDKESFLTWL

Results are given in words; binding and its absence hold for the method and conditions named. Binding seen in cells or lysates may run through a third protein. Some results given as binding are weak or reduced against the parent protein; the word gives no strength. Sequences can lack the tags named with a protein.

For “V5-tagged YAP (from UniProt P46937 1-504)”, the binding result was “binds”.

The values are drawn from article PMC5415356.
